Taken from: PubChem BioAssay AID652259 (Drosophila RNAi Screening Center, 2013)
Screen: 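Knock-downs that push a Wingless-driven reporter up or down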 (primary screen). Cells: Drosophila clone 8 imaginal disc epithelial cells. Knock-down reagent: long dsRNA against Drosophila genes. Challenge: pathway stimulated by co-transfected Wingless expression plasmid. Detection: 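Dual luciferase reads per well after Wingless plasmid stimulation: reporter firefly light and Renilla control light; activity is firefly divided by Renilla, a ratio not deposited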. Direction: firefly reporter light: higher = more Wg reporter light, before normalisation; Renilla control light: higher = more transfected or surviving cells. Active means: 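Strong candidates differ from their plate mean by at least two out of four per-plate statistical tests; weak candidates meet just one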. Meaning of the calls: active = candidate regulator (raises or lowers reporter); inactive = not a candidate.
The deposit covers about 22,000 reagents; shown is an unselected part of those that have a named target and a result. Over the whole deposit, 233 (1.1%) got an active call. 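Light values are raw, unnormalised plate reads; the ratio scores behind the reporter calls were not deposited.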 A plus sign joins genes that one reagent is predicted to hit. Reagent sequences are not shown. Not stated in the record: the amount of reagent, the time to read-out, the dose of the treatment.

gene	dsRNA	reporter change call, replicate 1	firefly reporter light, replicate 1	firefly reporter light, replicate 2	Renilla control light, replicate 1	Renilla control light, replicate 2	Outcome
CG17271 (GeneID 42463)	DRSC15210		21104		4368		inactive
CG17271 (GeneID 42463)	DRSC22629		8.69e5	9.34e5	81646	28174	inactive
CG33702 (GeneID 3771932)	DRSC08986		3669		1442		inactive
mAChR-C (GeneID 31626)	DRSC17890		19574		9056		inactive
CG11327 (GeneID 33940)	DRSC02146		2049	8272	795	2464	inactive
CG8531 (GeneID 36584)	DRSC07209		11248		3283		inactive
CG42361 (GeneID 37936)	DRSC04391		2570	9830	824	2304	inactive
HmgZ (GeneID 37480)	DRSC03888		22339		11844		inactive
HmgZ (GeneID 37480)	DRSC04620		2614	9216	832	3929	inactive
Tfb4 (GeneID 33294)	DRSC00675		5676	10515	944	2343	inactive
CG3473 (GeneID 34849)	DRSC01915		4920	11095	2064	4522	inactive
CG14929 + CG14930	DRSC02412		2708	6934	691	3686	inactive
CG7900 (GeneID 40957)	DRSC16336		27808		8441		inactive
CG7900 (GeneID 40957)	DRSC21343		4.76e5	4.74e5	2.02e5	1.82e5	inactive
CG13527 (GeneID 37615)	DRSC04169		3421	7276	601	2562	inactive
dsh (GeneID 32078)	DRSC19803	Wg reporter activity lowered	13754		8228		inactive
Ccp84Ab (GeneID 40824)	DRSC12587		16081		4011		inactive
CCAP-R (GeneID 2768688)	DRSC14891		12612		12807		inactive
CCAP-R (GeneID 2768688)	DRSC15967		22169		15899		inactive
cmpy (GeneID 40288)	DRSC11701		9367		3910		inactive
Ca-beta (GeneID 34557)	DRSC02406		2172	4722	1036	2812	inactive
Ca-beta (GeneID 34557)	DRSC02407		3008	6096	1030	2470	inactive
Ca-beta (GeneID 34557)	DRSC03285		5477	6897	1399	3344	inactive
Ca-beta (GeneID 34557)	DRSC21432		3.66e5	4.19e5	1.72e5	1.71e5	inactive
CG43077 (GeneID 12797990)	DRSC19168		3177		1301		inactive
Surf4 (GeneID 41864)	DRSC16875		15357		3376		inactive
kappaTry (GeneID 36215)	DRSC06146		3749		2021		inactive
dbe (GeneID 33269)	DRSC00811		13136		5442		inactive
CG3880 (GeneID 37957)	DRSC04428		3796	10492	1122	3693	inactive
CG3880 (GeneID 37957)	DRSC21404		3.67e5	3.51e5	1.53e5	1.34e5	inactive
MED23 + CG3700	DRSC04406		2701	5708	643	2732	inactive
MED23 + CG3700	DRSC04407		5803		1888		inactive
Pal1 + Pdrg1	DRSC06587		2907	4813	800	2048	inactive
fz4 (GeneID 31659)	DRSC18780	Wg reporter activity lowered	13672		8978		active
spartin (GeneID 40582)	DRSC12187		24284		7703		inactive
CG18577 (GeneID 41337)	DRSC15352		11792		4442		inactive
JIL-1 (GeneID 39241)	DRSC11200		5600		3222		inactive
Ctr9 (GeneID 38149)	DRSC08562		15227		3320		inactive
CG15203 (GeneID 32038)	DRSC19650		20261		11088		inactive
CG15731 (GeneID 32194)	DRSC19698		20260		11920		inactive
CG15731 (GeneID 32194)	DRSC21820		6.96e5	7.95e5	3.60e5	2.46e5	inactive
px (GeneID 37573)	DRSC04708		5120		769		inactive
CG10139 (GeneID 36626)	DRSC05972		10245		1308		inactive
Nipped-A (GeneID 35483)	DRSC04882		26281		6818		inactive
Nipped-A (GeneID 35483)	DRSC04883		3723	14236	482	3744	inactive
Nipped-A (GeneID 35483)	DRSC04884		2672	9179	566	1796	inactive
Nipped-A (GeneID 35483)	DRSC07738		7827		2313		inactive
Nipped-A (GeneID 35483)	DRSC22386		7.04e5	6.61e5	2.71e5	2.52e5	inactive
TM9SF3 (GeneID 38635)	DRSC09747		1237	5760	944	3014	inactive
CG14893 (GeneID 42023)	DRSC15015		13104		3971		inactive
Cyp4d20 (GeneID 38311)	DRSC08654		8726		2720		inactive
CG13392 (GeneID 34157)	DRSC02262		2183	6458	922	2489	inactive

Reprinted from the listing, 10 entries:
gene	dsRNA	reporter change call, replicate 1	firefly reporter light, replicate 1	firefly reporter light, replicate 2	Renilla control light, replicate 1	Renilla control light, replicate 2	Outcome
Ca-beta (GeneID 34557)	DRSC02406		2172	4722	1036	2812	inactive
Ca-beta (GeneID 34557)	DRSC02407		3008	6096	1030	2470	inactive
Ca-beta (GeneID 34557)	DRSC03285		5477	6897	1399	3344	inactive
Ca-beta (GeneID 34557)	DRSC21432		3.66e5	4.19e5	1.72e5	1.71e5	inactive
CG43077 (GeneID 12797990)	DRSC19168		3177		1301		inactive
Surf4 (GeneID 41864)	DRSC16875		15357		3376		inactive
kappaTry (GeneID 36215)	DRSC06146		3749		2021		inactive
dbe (GeneID 33269)	DRSC00811		13136		5442		inactive
CG3880 (GeneID 37957)	DRSC04428		3796	10492	1122	3693	inactive
CG3880 (GeneID 37957)	DRSC21404		3.67e5	3.51e5	1.53e5	1.34e5	inactive

Further results follow:
gene	dsRNA	reporter change call, replicate 1	firefly reporter light, replicate 1	firefly reporter light, replicate 2	Renilla control light, replicate 1	Renilla control light, replicate 2	Outcome
IntS3 (GeneID 3355010)	DRSC21215	Wg reporter activity lowered	7441		6658		active
trio (GeneID 43974)	DRSC07928		2506		520		inactive
trio (GeneID 43974)	DRSC08527		8027		2336		inactive
trio (GeneID 43974)	DRSC08740		5205		2636		inactive
CG14646 (GeneID 40555)	DRSC12232		8469		4217		inactive
CG14646 (GeneID 40555)	DRSC21316		4.79e5	5.60e5	2.13e5	1.45e5	inactive
CG15160 (GeneID 35109)	DRSC02461		4774	10499	912	4535	inactive
Gtpx (GeneID 38413)	DRSC08221		12022		5392		inactive
Gtpx (GeneID 38413)	DRSC22117		4.54e5	4.31e5	1.94e5	2.46e5	inactive
sowi (GeneID 40809)	DRSC12558		7548		1780		inactive
CG12224 (GeneID 41453)	DRSC14480		17596		5317		inactive
RhoGAP16F (GeneID 32790)	DRSC20025		1824	4917	784	1933	inactive
Aatf (GeneID 33943)	DRSC02131		1786	5352	985	3122	inactive
CG14563 (GeneID 40435)	DRSC11724		20557		3623		inactive
CG14190 (GeneID 32891)	DRSC19545		22059		9846		inactive
Gpo1 (GeneID 47611)	DRSC07128		16745		4870		inactive
SmE (GeneID 34080)	DRSC02680		1577	5323	515	1761	inactive
Miga (GeneID 31775)	DRSC17821		22347		11291		inactive
sub (GeneID 44870)	DRSC06125		15696		3991		inactive
lncRNA:CR43337 (GeneID 12798544)	DRSC07893		3780		2268		inactive
Pih1D1 (GeneID 34685)	DRSC02897		14916		5469		inactive
ng3 (GeneID 31299)	DRSC18804		16752		12176		inactive
Pka-C2 (GeneID 43644)	DRSC16790		3860		1984		inactive
spab (GeneID 35901)	DRSC07112		3648	8864	1321	4157	inactive
CG13216 (GeneID 36181)	DRSC06338		4651		2392		inactive
CG13375 (GeneID 30976)	DRSC18621		17072		11394		inactive
CG7655 (GeneID 42128)	DRSC16275		2928	9383	1368	2290	inactive
dpr2 (GeneID 3346227)	DRSC02370		2843	9474	1160	4133	inactive
dpr2 (GeneID 3346227)	DRSC02371		2026	7367	970	4102	inactive
CG17124 (GeneID 34485)	DRSC02580		4066	8563	1731	4385	inactive
Octbeta2R (GeneID 41549)	DRSC12917		5083		1408		inactive
Octbeta2R (GeneID 41549)	DRSC15350		20886		6146		inactive
Octbeta2R (GeneID 41549)	DRSC16165		14533		4096		inactive
CG2921 (GeneID 37515)	DRSC04324		9818		2514		inactive
CG15643 (GeneID 32489)	DRSC19679		10434		5569		inactive
PPO1 (GeneID 37044)	DRSC05929		16024		2775		inactive
Hsp23 (GeneID 39077)	DRSC11188		4480		1813		inactive
Herp (GeneID 34065)	DRSC02394		10976		4996		inactive
CG31800 (GeneID 318947)	DRSC22525		9.00e5	8.95e5	4.45e5	4.04e5	inactive
CG3604 (GeneID 33593)	DRSC00618		2310	7964	696	2498	inactive
fray (GeneID 44233)	DRSC16950		12765		2672		inactive
